According to PMC12114750 (Pharmaceuticals, 2025):

Test system: FL83B hepatocytes
Experiment: Cytotoxicity (in vitro hepatotoxicity) MTT assay, FL83B
Format: cell-based
Conditions: Mus musculus, 24 h, normal murine hepatocytes
Description: Hepatocyte cells (FL83B; ATCC: CLR-2390) were cultured in F-12K medium. Human neuroblastoma (SH-SY5Y; ATCC: CRL-2266) cells were cultivated in DMEM/F12 medium. All media were supplemented with fetal bovine serum (10%) (Biowest, Riverside, MO, USA) and 1% antibiotic/antimycotic solution (Biowest, Nuaill’e, France).
Cells were seeded at an appropriate density to promote optimal growth, and the culture medium was replaced every 48 h. Once cells reached 80–90% confluence, subculture was performed using 0.25% trypsin-EDTA to dissociate the cells, by 2 min and put inside of chamber during 5 min, according to the protocol provided by the biobanks. […]
Cells were seeded in 96-well plates (HepG-2: 2.5 ×10^4 cells; HCT-15: 2.5 × 10^4 cells/mL; MCF-7: 2.5 × 10^4 cells/mL; SH-SY5Y: 5.0 × 10^4 cells/mL; FL83B: 5.0 × 10^4 cell/mL; DU-145: 5.0 × 10^4 cell/mL). […] Cell viability was assessed using MTT assay. […] After incubation, the intracellular formazan crystals were solubilized with 100 μL DMSO and, after […], the absorbance was measured at 570 nm using a microplate reader (Synergy H1). […] Results were expressed as a percentage of control untreated cells and the half-maximal inhibitory concentration (IC50) values were determined using nonlinear regression analysis (GraphPad Prism, 8.1, GraphPad Software, San Diego, CA, USA).

CC/C(=C(\c1ccccc1)c1ccc(OCCN(C)C)cc1)c1ccccc1 [Tamoxifen, reference compound]
IC50: 19.5 µM
